Test results taken from patent US20070003534A1.
Residue numbers refer to the chain shown, from its start. Results are given in words; binding and its absence hold for the method and conditions named. Some results given as binding are weak or reduced against the parent protein; the word gives no strength.

B1: SEQ ID NO 1 (protein)
chain: MLSRLQELRKEEETLLRLKAALHDQLNRLKVEELALQSMINSRGRTETLSSQPAPEQLCDMSLHVDNEVTINQTTLKLSTRSPMEEEEEEEEEEEEEEESDS
B2: SEQ ID NO 10 (protein)
chain: PRKWKGMLSRLQELRKEEETLLRLKAALHDQLNRLKVEELALQSMINSRGRTETLSSQPAPEQLCDMSLHVDNEVTINQTTR
B3: SEQ ID NO 109 (protein)
chain: MMDVSRTQTAVSIVEEDLKLLQLKLRASMSTKCNLEDQIKKLEDDRSSLQTAKAGLEDECKTLRQKVEILNELYQQKEMALQKKLSQEEYERQDREQRLTAADEKVVLAAEEVKTYKRRIEEMEEELQKTERSFKNQIAAHEKKAHDNWLKARAAERAMAEEKREAANLRHKLLEMTQKMAMRQDEPVIVKPMPGRPNTQNPPRRGLLSQNGSFGPSPVSGGECSPPLPAEPPGRPLSATLSRRDTPRSEFGSLDRHLPRPRWPSEASGKHSASDPGPAPVVNSSSRSSSPAKAVDEGKVNMAPKGPPPFPGVPLMGGPVPPPIRYGPPPQLCGGPFGPRPLPPPFVPGMHPPLGVREYAPGVLPGKRDLPLDPREFLPGHTPFRPPGSLGPREFFIPGTRLPPPTHGPQEYPPPPPAVRDSLPSGPREEAKPASPSSVQDRSQASKPTP
B4: SEQ ID NO 11 (protein)
chain: B2 chain with P1L, S57F
B5: SEQ ID NO 114 (protein)
chain: MNNFECEPAFYTCVEVTAGNRLFYHIVDSDEVSTKILMEFNKMNLPGEVTFLPLNKLDVRDTAYPETNDAIPMISKLRYNPRFDKAFKHVFGKTLICRSMEVSTQLARAFTMDCITLEGDQVSHRGALTGGYYDTRKSRLELQKDVRKAEEELGELEAKLNENLRRNIERINNEIDQLMNQMQQIETQQRKFKASRDSILSEMKMLKEKRQQSEKTFMPKQRSLQSLEASLHAMESTRESLKAELGTDLLSQLSLEDQKRVDALNDEIRQLQQENRQLLNERIKLEGIITRVETYLNENLRKRLDQVEQELNELRETEGGTVLTATTSELEAINKRVKDTMARSEDLDNSIDKTEAGIKELQKSMERWKNMEKEHMDAINHDTKELEKMTNRQGMLLKKKEECMKKIRELGSLPQEAFEKYQTLSLKQLFRKLEQCNTELKKYSHVNKKALDQFVNFSEQKERLIKRQEELDRGYKSIMELMKCT
B6: SEQ ID NO 116 (protein)
chain: MMEIQMDEGGGVVVYQDDYCSGSVMSERVSGLAGSIYREFERLIHCYDEEVVKELMPLVVNVLENLDSVLSENQEHEVELELLREDNEQLLTQYEREKALRKQAEEKFIEFEDALEQEKKELQIQVEHYEFQTRQLELKAKNYADQISRLEERESEMKKEYNALHQRHTEMIQTYVEHIERSKMQQVGGSGQTESSLPGRSRKERPTSLNVFPLADGMVRAQMGGKLVPAGDHWHLSDLGQLQSSSSYQCPNDEMSESGQSSAAATPSTTGTKSNTPTSSVPSAAVTPLNESLQPLGDYVSVTKNNKQAREKRNSRNMEVQVTQEMRNVSIGMGSSDEWSDVQDIIDSTPELDVCPETRLERTGSSPTQGIVNKALGINTDSLYHELSTAGSEVIGDVDEGADLLGEFSVRDDFFGMGKEVGNLLLENSQLLETKNALNVVKNDLIAKVDQLSGEQEVLKGELEAAKQAKVKLENRIKELEEELKRVKSEAVTARREPREEVEDVSSYLCTELDKIPMAQRRRFTRVEMARVLMERNQYKERLMELQEAVRWTEMIRASREHPSVQEKKKSTIWQFFSRLFSSSSSPPPAKRSYPSVNIHYKSPTAAGFSQRRSHALCQISAGSRPLEFFPDDDCTSSARREQKREQYRQVREHVRNDDGRLQACGWSLPAKYKQLSPNGGQEDTRMKNVPVPVYCRPLVEKDPSTKLWCAAGVNLSGWKPHEEDSSNGPKPVPGRDPLTCDREGEGEPKSTHPSPEKKKAKETPEADATSSRVWILTSTLTTSKVVIIDANQPGTIVDQFTVCNAHVLCISSIPAASDSDYPPGEMFLDSDVNPEDSGADGVLAGITLVGCATRCNVPRSNCSSRGDTPVLDKGQGDVATTANGKVNPSQSTEEATEATEVPDPGPSESEATTVRPGPLTEHVFTDPAPTPSSSTQPASENGSESNGTIVQPQVEPSGELSTTTSSAAPTMWLGAQNGWLYVHSAVANWKKCLHSIKLKDSVLSLVHVKGRVLVALADGTLAIFHRGEDGQWDLSNYHLMDLGHPHHSIRCMAVVNDRVWCGYKNKVHVIQPKTMQIEKSFDAHPRRESQVRQLAWIGDGVWVSIRLDSTLRLYHAHTHQHLQDVDIEPYVSKMLGTGKLGFSFVRITALLIAGNRLWVGTGNGVVISIPLTETVVLHRGQLLGLRANKTSPTSGEGTRPGGIIHVYGDDSSDKAASSFIPYCSMAQAQLCFHGHRDAVKFFVSVPGNVLATLNGSVLDSPSEGPGPAAPAADAEGQKLKNALVLSGGEGYIDFRIGDGEDDETEECAGDVNQTKPSLSKAERSHIIVWQVSYTPE
B7: SEQ ID NO 118 (protein)
chain: MEAAVCSEIEREDGDSSCGDVCFMDKGLHSISELSLDSSIHAINLHCNNISKISSIDHIWNLRHLDLSSNQISQIEGLNTLTKLCTLNLSCNLITRVEGLEALVNLTKLNLSYNHINDLSGLMPLHGLKYKLRYIDLHSNYIDSIHHLLQCTVGLHFLTNLILEKDGEGNPICLIPGYRAIILQTLPQLRILDCKNIFGEPVSLEEINSSHLQCLEGLLDNLVSSDSPLNISEDEVNDDVSAPPMDVLPSLKEFKSTPEDNVLASLLSVCPSSEPEKINQENDFQNEVKLQKLDDQILQLLNETNNSLIDNVPEKDLRPKRDTDITSESDYGNRRECSRKVPRRTKIPYYSRTIQTIKHHNKNNGAFVSCNRKMRQPYLRDLYVRSSLVNCNNLRDLDEQKTGVIKVDKNFSDNSTYRSLVEQLDQEREMRWKAEQTEKKLMDYIDELHKQADEKKDVHSQALITTDRLKDAIFKERHCKAQLEIIVHRLQNEVKKLTIELMKARDQQEDHIRHLRTLERALEKMEKQKAQQQAAQIRLIQEVELKASAADREINLLRTSLHQEKQQVQQLHELLALKEQEHRQEIETRQFFTDAEFQDALTKRLCKEERKHEQEVKEYQEKIDILNQQYLDLENEFRIALTVEARRFKDVQDGFEDVATELAKSKHALIWAQRKENESSSLIKDLTCMVKEQKTKLSEVCKLKQEAAANLQNQINTLEILIEDDKQKSIQIELLKHEKTQLISELAAKESLIYGLRTERKVWGQELACQSSTLSQSRGKLEAQIESLCRENESLRKSHESDCDALRIKCKIIEDQNETIRKLKDSLQEKDGQIKLLQEQIALIEKCSQEQLNEKSPQLDSIVEKLERHNERKEKLKQQLKAKELELEEIRKAYSTLNKKWHDKGELLSHLEMQVKEVKEKFEDKERKLKAERDKSLELQKDAMEKLQNMDDAFRRQVDEIVEAHQAEIMQLANEKQKYIDCANLKGDYARGD
B8: SEQ ID NO 122 (protein)
chain: MASPTLSPDSSSQEALSAPTCSPTSDSENLSPDELELLAKLEEQNRLLEADSKSMRSMNGSRRNSGSSLVSSSSASSNLSHLEEDTWILWGRIANEWEEWRRRKEKLLKELIRKGIPHHFRAIVWQLLCSATDMPVKNQYSELLKMSSPCEKLIRRDIARTYPEHEFFKGQDSLGQEVLFNVMKAYSLVDREVGYCQGSAFIVGLLLMQMPEEEAFCVFVRLMQEYRLRELFKPSMAELGLCIYQFEYMLQEQLPDLNTHFRSQSFHTSMYASSWFLTLFLTTFPLPVATRVFDIFMYEGLEIVFRVGLALLQVNQTELMQLDMEGMSQYFQRVIPHQFDSCPDKLVLKAYQVKYNPKKMKRLEKEYAAMKSKEMEEQIEIKRLRTENRLLKQRIETLEKGQVTRAQEAEENYVIKRELAVVRQQCSSTAEDLQKAQSTIRQLQEQQVPGG
B9: SEQ ID NO 15 (protein)
chain: LRKWKGMLSRLQELRKEEETLLRLKAALHDQLNRLKVEELALQSMINSRGRTETLSSQPAPEQLCDMYLHVDNEVTINQTTLKLST
B10: SEQ ID NO 16 (protein)
chain: B2 chain with P1L, T81S, R82T
B11: SEQ ID NO 19 (protein)
chain: B2 chain with P1L, R82L
B12: SEQ ID NO 20 (protein)
chain: B2 chain with P1L, K25R, L55P, R82L
B13: SEQ ID NO 21 (protein)
chain: LRKWKGMLSRLQELRKEEETLLRLKAALHDQLNRLKVEELALQSMINSRGRTETLSSQPAPEQLCDMSLHVDNEVTINQTT
B14: SEQ ID NO 22 (protein)
chain: B2 chain with P1L, E74K, R82P
B15: SEQ ID NO 23 (protein)
chain: B2 chain with P1L, K25N, R82L
B16: SEQ ID NO 24 (protein)
chain: B2 chain with P1L, K16N, R82L
B17: SEQ ID NO 25 (protein)
chain: B2 chain with P1L, R10Q, A60V, R82L
B18: SEQ ID NO 27 (protein)
chain: B2 chain with P1L, T81H, R82K
B19: SEQ ID NO 30 (protein)
chain: QRKWKGMLSRLQELRKEEETLLRLKAALHDQLNRLKVEELALQSMINSRGRTETLSSQPA
B20: SEQ ID NO 31 (protein)
chain: REWKGMLSRLQELRKEEETLLRLKAALHDQLNRLKVEELALQSMINSRGRTETLSSQPAPEQLCDMSLHVDNEVTINQTHS
B21: SEQ ID NO 34 (protein)
chain: B20 chain with E2K, N72H, H80T, S81L
B22: SEQ ID NO 35 (protein)
chain: B20 chain with E2K, H80T, S81P

Biological target: bait c-Jun protein from the pCMV-cJun(502-957)CBPzz vector
Experiment: IVV cotranslation selection, bait c-Jun

Binder	binding
B1	binds
B2	binds
B3	binds
B4	binds
LEDQIKKLEDDRSSLQTAKAGLEDECKTLRQKVEILNELYQQSR [SEQ ID NO 111]	binds
B5	binds
B6	binds
B7	binds
B8	binds
B9	binds
B10	binds
B11	binds
B12	binds
B13	binds
B14	binds
B15	binds
B16	binds
B17	binds
B18	binds
B19	binds
B20	binds
RKWKGMLSRLQELRKEEETLLRLKAALHDQLNRLKVEELALQSMINSRGR [SEQ ID NO 33]	binds
B21	binds
B22	binds
